# These are yes or no findings as the source states them, for the method shown. In cells and extracts the contact can be indirect. For some assays here: Binding calls can cover weak binding; strength is not graded here.
# How the values were obtained:
# [1] = biological target: T1, BEI (Oryza sativa subsp. indica cv. IR36 (endogenous in developing seeds)) (UniProt Q01401); assay: co-IP; soluble proteins of developing seeds of WT (IR36) at 5 DAF incubated with isozyme-specific antibodies and protein A magnetic beads; washed with PBS pH 7.4; Western blotting
# T1 sequence: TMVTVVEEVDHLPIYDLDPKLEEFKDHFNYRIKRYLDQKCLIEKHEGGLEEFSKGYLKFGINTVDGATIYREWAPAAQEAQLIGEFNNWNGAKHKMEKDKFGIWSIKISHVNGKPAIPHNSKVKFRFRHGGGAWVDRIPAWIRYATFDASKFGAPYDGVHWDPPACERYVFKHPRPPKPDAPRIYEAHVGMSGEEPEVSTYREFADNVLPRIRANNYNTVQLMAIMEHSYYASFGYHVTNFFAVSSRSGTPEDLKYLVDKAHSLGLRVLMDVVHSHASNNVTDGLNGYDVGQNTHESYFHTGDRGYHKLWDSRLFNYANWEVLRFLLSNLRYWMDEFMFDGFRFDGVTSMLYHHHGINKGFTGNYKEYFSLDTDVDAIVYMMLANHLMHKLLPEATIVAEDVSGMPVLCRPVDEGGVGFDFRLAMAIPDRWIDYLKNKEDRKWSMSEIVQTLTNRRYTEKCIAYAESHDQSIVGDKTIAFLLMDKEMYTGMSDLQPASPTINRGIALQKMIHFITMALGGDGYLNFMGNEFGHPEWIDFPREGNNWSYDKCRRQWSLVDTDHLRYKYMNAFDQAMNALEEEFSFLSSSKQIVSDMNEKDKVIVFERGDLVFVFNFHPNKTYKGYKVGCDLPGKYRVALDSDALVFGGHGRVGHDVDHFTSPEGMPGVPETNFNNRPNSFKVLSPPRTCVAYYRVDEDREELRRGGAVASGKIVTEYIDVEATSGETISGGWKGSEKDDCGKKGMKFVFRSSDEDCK
# [2] = biological target: T2, SSI (Oryza sativa subsp. indica cv. IR36 (endogenous in developing seeds)) (UniProt A2Y9M4); assay: as above
# T2 sequence: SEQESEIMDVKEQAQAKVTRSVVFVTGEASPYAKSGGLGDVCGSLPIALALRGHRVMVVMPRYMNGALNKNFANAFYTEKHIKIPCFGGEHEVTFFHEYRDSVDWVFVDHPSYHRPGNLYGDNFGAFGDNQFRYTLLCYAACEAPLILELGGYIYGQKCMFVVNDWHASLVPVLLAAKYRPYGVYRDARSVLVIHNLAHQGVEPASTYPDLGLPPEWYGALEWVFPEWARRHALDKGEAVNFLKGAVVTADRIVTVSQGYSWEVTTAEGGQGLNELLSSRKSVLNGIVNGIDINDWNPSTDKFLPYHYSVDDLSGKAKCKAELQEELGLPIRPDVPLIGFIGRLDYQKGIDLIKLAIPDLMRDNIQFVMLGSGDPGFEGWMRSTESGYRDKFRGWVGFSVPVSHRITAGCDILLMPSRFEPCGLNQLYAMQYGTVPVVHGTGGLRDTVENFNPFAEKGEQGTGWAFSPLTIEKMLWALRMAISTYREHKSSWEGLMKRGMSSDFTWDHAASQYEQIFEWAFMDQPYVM
# [3] = biological target: T1, BEI (Oryza sativa subsp. indica cv. IR36 (endogenous in developing seeds)); assay: co-IP; soluble proteins of developing seeds of the be2b mutant at 10 DAF incubated with isozyme-specific antibodies and protein A magnetic beads; washed with PBS pH 7.4; Western blotting
# [4] = biological target: T3, SSIIa (Oryza sativa subsp. indica cv. IR36 (endogenous in developing seeds)) (UniProt P0C586); assay: as above
# T3 sequence: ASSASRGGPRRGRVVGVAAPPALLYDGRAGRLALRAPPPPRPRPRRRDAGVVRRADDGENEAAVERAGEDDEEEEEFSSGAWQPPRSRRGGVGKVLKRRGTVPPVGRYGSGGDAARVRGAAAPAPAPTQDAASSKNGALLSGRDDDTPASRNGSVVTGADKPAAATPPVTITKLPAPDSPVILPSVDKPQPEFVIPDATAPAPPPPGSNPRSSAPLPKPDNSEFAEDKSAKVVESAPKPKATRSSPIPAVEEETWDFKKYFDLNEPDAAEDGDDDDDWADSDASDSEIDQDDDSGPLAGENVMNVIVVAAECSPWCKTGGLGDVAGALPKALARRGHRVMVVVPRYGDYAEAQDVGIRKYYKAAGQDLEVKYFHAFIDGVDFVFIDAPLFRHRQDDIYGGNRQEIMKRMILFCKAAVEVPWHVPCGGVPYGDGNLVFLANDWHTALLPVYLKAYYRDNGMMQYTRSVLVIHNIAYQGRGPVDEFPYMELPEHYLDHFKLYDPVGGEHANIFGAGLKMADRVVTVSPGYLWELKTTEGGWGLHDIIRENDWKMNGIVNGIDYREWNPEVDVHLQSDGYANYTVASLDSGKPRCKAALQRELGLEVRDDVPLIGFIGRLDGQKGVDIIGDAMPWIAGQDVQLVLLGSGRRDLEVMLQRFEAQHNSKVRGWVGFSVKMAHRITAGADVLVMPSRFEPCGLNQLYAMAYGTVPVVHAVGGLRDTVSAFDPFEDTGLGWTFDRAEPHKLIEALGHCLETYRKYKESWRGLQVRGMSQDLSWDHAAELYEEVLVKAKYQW
# [5] = biological target: T1, BEI (Oryza sativa subsp. indica cv. IR36 (endogenous in developing seeds)); assay: co-IP; soluble proteins of developing seeds of WT (IR36) at 10 DAF incubated with isozyme-specific antibodies and protein A magnetic beads; washed with PBS pH 7.4; Western blotting
# [6] = biological target: T2, SSI (Oryza sativa subsp. indica cv. IR36 (endogenous in developing seeds)); assay: as above
# [7] = biological target: T3, SSIIa (Oryza sativa subsp. indica cv. IR36 (endogenous in developing seeds)); assay: co-IP; soluble proteins of developing seeds of the be2b mutant at 5 DAF incubated with isozyme-specific antibodies and protein A magnetic beads; washed with PBS pH 7.4; Western blotting
# [8] = biological target: T3, SSIIa (Oryza sativa subsp. indica cv. IR36 (endogenous in developing seeds)); assay: co-IP; soluble proteins of developing seeds of the be2b mutant at 15 DAF incubated with isozyme-specific antibodies and protein A magnetic beads; washed with PBS pH 7.4; Western blotting
substance,measurement,setting,value
SSIVb (enzyme),binding,[1],binds weakly
same,binding,[2],binds weakly
same,binding,[3],binds
same,binding,[4],no binding
same,binding,[5],binds weakly
same,binding,[6],binds
same,binding,[7],no binding
same,binding,[8],no binding

# — PMC9501056
